{"source": "patent US20070141158A1", "about": "“Amphiphilic heparin derivative formed by coupling a heparin with a bile acid” (ETHYPHARM, priority 2003, published 2007)", "test_system": "rat everted intestinal sac", "conditions": "vectorized by HEP30CHO (magnesium salt form) versus nifedipine kept in solution with DMSO; 30, 60 and 90 minutes, 37° C. (FIG. 7)", "data": [{"smiles": "COC(=O)C1=C(C)NC(C)=C(C(=O)OC)C1c1ccccc1[N+](=O)[O-]", "note": "[Nifedipine]", "values": [{"measurement": "rate of absorption of nifedipine by the intestinal mucosa", "value": "markedly greater"}]}]}
